# From PubChem BioAssay AID2685 (National Center for Advancing Translational Sciences (NCATS), 2010)
# Some of the results follow. Shown are side measurements of this screen, not its main read-out; they come without a call. The list favours compounds with an active or inconclusive main result. The note in brackets gives the kind of curve behind each potency; many fits are weak.
# Experiment: qHTS Assay for Lipid Storage Modulators in Drosophila S3 Cells;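 as to cell number change: cells counted by Cell Tracker Red CMTPX staining in the red channel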
# Details: BODIPY lipid droplet fluorescence, 18-24 h; for cell number change: measured here: cell count max response, cells fed with added oleic acid
# How it was run: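 Laser-scanning cytometry quantifies lipid droplet accumulation (500–530 nm total intensity; droplet/cell object ratio) in oleic acid-fed (400 uM added) Drosophila S3 cells treated with a concentration series. 20 uM Triacsin C defined 100% inhibition.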
# [1] = measured here: cell number channel AC50, cells fed with added oleic acid
# [2] = measured here: lipid fluorescence (Fed channel) AC50, cells fed with added oleic acid
SMILES,cell number change [%],AC50 [1],AC50 [2]
COc1ccc(-c2nnc(SCc3nnc(-c4ccc(Cl)cc4)o3)n2-c2ccccc2)cc1,-36,"7.31 µM [falling, partial curve]","2.31 µM [rising, partial curve]"
CCCc1cc(=O)[nH]c2nnc(SCC(=O)Nc3ccc(NC(C)=O)cc3)n12,-24.8,,"10.3 µM [falling, partial curve, poor fit]"
CC(C)OCCCn1c(=N)c(C(N)=S)cc2c(=O)n3ccccc3nc21,-17.3,,"4.11 µM [falling, full curve]"
O=C(c1cccc([N+](=O)[O-])c1)N1CCN(c2ccc(Cl)cc2)CC1,18.6,,"29.1 µM [rising, single point]"
CCOc1ccc(N(CC(=O)Nc2cc(Cl)ccc2C)S(C)(=O)=O)cc1,-8.14,,"29.1 µM [falling, single point]"
COc1cc(NC(=O)COC(=O)/C=C/c2ccc(O)c(OC)c2)cc(OC)c1,67.6,"20.6 µM [rising, single point]","29.1 µM [rising, single point]"
O=C(Nc1ccccc1)C(Cl)C(=O)c1ccccc1 (centres undefined),-32.1,"9.2 µM [falling, single point]","0.58 µM [falling, partial curve]"
CC(Oc1ccc2ccccc2c1)C(=O)NNC(=S)NC(=O)c1ccco1 (centres undefined),16.6,,
Cc1c(C(=O)N2CC[C@@H](N3CCC(O)CC3)[C@H](O)C2)[nH]c2ccc(Cl)cc12,13.7,,"25.9 µM [rising, single point]"
Cc1noc(C)c1S(=O)(=O)Nc1ccc(C(=O)N2CCN(c3cccc(Cl)c3)CC2)cc1,43.1,"14.6 µM [rising, partial curve]",
O=c1c([N+](=O)[O-])c(N2CCCCC2)c2ccccc2n1-c1ccccc1,-72.7,"20.6 µM [falling, partial curve]","20.6 µM [falling, partial curve]"
CCN(CC)C(=O)CSC(Nc1ccc(F)cc1)=C(C#N)C#N,17.5,,
CC(=O)OCC(=O)Nc1ccc(Cl)cc1Cl,-23.8,"0.82 µM [falling, full curve, poor fit]","14.6 µM [falling, partial curve, poor fit]"
COCc1cc(C)n(CC(=O)Nc2cccc(C)c2)c(=O)c1C#N,38,"0.231 µM [rising, full curve, poor fit]",
CCNc1nc(N2CCCCC2)nc(-n2nnc(C(=O)OCC)c2C)n1,,"4.11 µM [rising, partial curve]","2.91 µM [rising, partial curve]"
O=C(Nc1ccc2c(c1)OCCO2)C1CCN(S(=O)(=O)c2cccc3nsnc23)CC1,7.76,,"0.259 µM [rising, full curve, poor fit]"
O=C(CSc1ccc(-c2ccccc2)nn1)N1CCCc2ccccc21,2.13,,"6.51 µM [rising, single point]"
COC(=O)c1ccc(/C=N/OCC(=O)NC2CCCC(C)C2C)cc1 (centres undefined),-9.97,,
CCOC(=O)Cn1cc(/C=N/N2C(=O)C3C4C=CC(C4)C3C2=O)c2ccccc21 (centres undefined),39.8,"29.1 µM [rising, single point]",
O=C1[C@@H]2Cc3c([nH]c4ccccc34)CN2C(=O)CN1CCCO,,,"29.1 µM [rising, single point]"

SMILES,cell number change [%],AC50 [1],AC50 [2]
CC1CCCCC1NC(=O)COC(=O)CCC(=O)c1cccs1 (centres undefined),4.84,,"6.51 µM [falling, single point]"
Cc1ccc(OCCCC(=O)N2CCN(S(=O)(=O)c3cccc(F)c3)CC2)cc1,6.79,,
O=C(CNc1cccc(S(=O)(=O)N2CCOCC2)c1)N1CCc2ccccc21,0.854,,"3.66 µM [falling, single point]"
O=C(CSc1nnc(NC(=O)c2c(F)cccc2F)s1)NC1CCCCC1,,,"29.1 µM [rising, single point]"
COc1ccc(C(=O)CSc2nnc(-c3ccoc3C)n2CC2CCCO2)cc1 (centres undefined),13.4,"0.0103 µM [rising, full curve, poor fit]","4.61 µM [rising, full curve, poor fit]"
Cc1cccc(-n2nnnc2SCC(=O)N(CC(C)C)c2c(N)n(CC(C)C)c(=O)[nH]c2=O)c1,91.1,"20.6 µM [rising, single point]",
CCOC(=O)c1cc(C#N)c(SCC(N)=O)[nH]c1=O,-3.06,,"6.51 µM [falling, single point]"
Cn1c2ccccc2c2nnc(SCCN3CCOCC3)nc21,1.39,,"20.6 µM [rising, partial curve]"
Cc1ccc(NC(=O)C2CCN(S(=O)(=O)c3c(C)noc3C)CC2)cc1C,-77,"1.64 µM [falling, partial curve]","1.64 µM [falling, partial curve]"
COc1ccc(N(C(=O)Cc2cccs2)C(C(=O)NC2CCCCC2)c2cccn2C)cc1 (centres undefined),6.41,"0.103 µM [falling, full curve, poor fit]","0.58 µM [falling, full curve]"
COc1ccc2oc(=N)c(C(=O)Nc3ccc(Br)cc3)cc2c1,,,"29.1 µM [rising, single point]"
CC1CCCN(C(=O)c2ccc(NS(=O)(=O)c3ccc4[nH]c(=O)[nH]c4c3)cc2)C1 (centres undefined),-1.17,,
O=C(OCCN1C(=O)c2cccc3c(N4CCOCC4)ccc(c23)C1=O)c1cc(Cl)cc(Cl)c1,-48,"29.1 µM [falling, single point]",
C=CCn1c(N)cc(=O)nc1SCC(=O)N1CCN(c2ccc(F)cc2)CC1,-24,,"29.1 µM [falling, single point]"
CC(=O)Nc1cc(NC(C)=O)c2nc(N)sc2c1,-0.919,,"5.8 µM [falling, single point]"
CCOc1ccc(Br)cc1S(=O)(=O)N1CC(C)OC(C)C1 (centres undefined),-1.16,,"6.51 µM [falling, single point]"
COc1cc(/C=N/NC(=O)c2cccc(NC(=O)c3ccccc3Cl)c2)ccc1O,7.85,,"0.517 µM [rising, full curve, poor fit]"
Cc1coc2c1c(C)cc1oc(=O)c(CC(=O)N[C@H](C(=O)O)C(C)C)c(C)c12,-2.84,,
Cc1ccc(S(=O)(=O)N(CCC#N)CCN2CCCC2)cc1,-41.7,"6.51 µM [falling, full curve, poor fit]","1.3 µM [falling, full curve]"
CCOC(=O)/C=c1\s/c(=C\c2ccc3cc(OC)ccc3c2)c(=O)n1CC(=O)NCC1CCCO1 (centres undefined),-11.1,,"6.51 µM [falling, single point]"

SMILES,cell number change [%],AC50 [1],AC50 [2]
CNc1c(NS(=O)(=O)c2cc(Cl)ccc2OC)c(=O)oc2ccccc12,2.25,,
CCN(CC(=O)Nc1ccc(NC(C)=O)cc1)C(=O)CSc1nnc(-c2ccco2)n1CC,-44.4,"29.1 µM [falling, single point]",
COc1ccc2cc(C(c3nnnn3CCc3ccccc3)N3CCCC(C)C3)c(=O)[nH]c2c1 (centres undefined),-9.56,,
O=C(NC1(O)C(=O)c2ccccc2C1=O)c1ccccc1,-16.1,"0.461 µM [falling, full curve, poor fit]","0.731 µM [falling, full curve]"
C/C(=C\c1ccccc1)C(=O)Nc1cc(C)on1,,"0.116 µM [falling, full curve, poor fit]","0.13 µM [falling, full curve, poor fit]"
Cc1c(N2CCCC2)cc2c(c1N)C(C)(C)CC2(C)C,-38.3,"29.1 µM [falling, single point]","32.6 µM [falling, single point]"
CCc1ccc(NC(=O)CCc2nc3cccnc3n2Cc2ccc(OC)cc2)cc1,-50.4,"29.1 µM [falling, single point]","23.1 µM [falling, single point]"
COc1ccccc1CC(=O)Nc1sc2c(c1C(N)=O)CCCC2,80,,"0.58 µM [rising, partial curve]"
Cc1cc(C(=O)CSc2nnc(-c3cccs3)n2Cc2ccccc2)c(C)n1C,-21.6,,"0.092 µM [rising, full curve, poor fit]"
Cc1cc(C)n(C(=O)C(C(=O)c2ccccc2)C(C)C)n1 (centres undefined),4.11,,"6.51 µM [rising, single point]"
CCOC(=O)CSc1nc2ccccc2n2c(C)nnc12,17.7,,
O=C1C(=O)N(CC2CCCO2)C(c2ccco2)/C1=C(/O)c1ccc(F)cc1 (centres undefined),17.3,,
COCCCn1c(SCC(=O)N2CCCC(C)C2)nnc1-c1ccco1 (centres undefined),16.5,,"29.1 µM [rising, single point]"
COc1ccc2cc3cc(C(=O)NC4CC4)sc3nc2c1,-7.08,,"1.03 µM [rising, partial curve]"
COc1cc(NC(=O)c2sc3nc(C)nc(N4CCOCC4)c3c2C)cc(OC)c1OC,3.23,,"29.1 µM [rising, single point]"
CCOC(=O)c1cnc2c(Cl)cccc2c1NCCCN1CCOCC1,,,"29.1 µM [rising, single point]"
Cc1ccc(C(=O)N2C(=O)C(c3ccccc3)Oc3ccccc32)cc1 (centres undefined),0.32,"0.58 µM [falling, single point]",
COc1ccc(C)cc1NC(=O)C(c1ccccc1)N1CCN(CC(=O)NC2CC2)CC1 (centres undefined),132,"18.4 µM [rising, partial curve]",

# Some of the entries above, set out differently:
SMILES	cell number change [%]	AC50 [1]	AC50 [2]
COc1ccc2cc(C(c3nnnn3CCc3ccccc3)N3CCCC(C)C3)c(=O)[nH]c2c1 (centres undefined)	-9.56		
O=C(NC1(O)C(=O)c2ccccc2C1=O)c1ccccc1	-16.1	0.461 µM [falling, full curve, poor fit]	0.731 µM [falling, full curve]
C/C(=C\c1ccccc1)C(=O)Nc1cc(C)on1		0.116 µM [falling, full curve, poor fit]	0.13 µM [falling, full curve, poor fit]
Cc1c(N2CCCC2)cc2c(c1N)C(C)(C)CC2(C)C	-38.3	29.1 µM [falling, single point]	32.6 µM [falling, single point]
CCc1ccc(NC(=O)CCc2nc3cccnc3n2Cc2ccc(OC)cc2)cc1	-50.4	29.1 µM [falling, single point]	23.1 µM [falling, single point]
COc1ccccc1CC(=O)Nc1sc2c(c1C(N)=O)CCCC2	80		0.58 µM [rising, partial curve]
Cc1cc(C(=O)CSc2nnc(-c3cccs3)n2Cc2ccccc2)c(C)n1C	-21.6		0.092 µM [rising, full curve, poor fit]
Cc1cc(C)n(C(=O)C(C(=O)c2ccccc2)C(C)C)n1 (centres undefined)	4.11		6.51 µM [rising, single point]
CCOC(=O)CSc1nc2ccccc2n2c(C)nnc12	17.7		
O=C1C(=O)N(CC2CCCO2)C(c2ccco2)/C1=C(/O)c1ccc(F)cc1 (centres undefined)	17.3		
COCCCn1c(SCC(=O)N2CCCC(C)C2)nnc1-c1ccco1 (centres undefined)	16.5		29.1 µM [rising, single point]
COc1ccc2cc3cc(C(=O)NC4CC4)sc3nc2c1	-7.08		1.03 µM [rising, partial curve]
